These are yes or no findings as the source states them, for the method shown. Some binding calls cover weakened binding; strength is not graded here.
Target: katanin p80 C-terminal domain (p80-CTD, aa 481-658 of mouse p80), 6xHis-tagged (mouse) (UniProt Q8BG40)
Assay: crystal structure; p60-MIT L40P:p80-CTD complex, 20 mg/ml in 20 mM HEPES pH 7.5, 150 mM NaCl; sitting drops at 20 °C, 27% PEG 3350, 0.1 M BisTris propane (6.0), 0.2 M MgCl2; 2.4 Å, space group C2; both purified

Amino acid sequences for entries named in this document (tags omitted). Residues count along the entry.
UniProt Q8BG40, residues 481-658: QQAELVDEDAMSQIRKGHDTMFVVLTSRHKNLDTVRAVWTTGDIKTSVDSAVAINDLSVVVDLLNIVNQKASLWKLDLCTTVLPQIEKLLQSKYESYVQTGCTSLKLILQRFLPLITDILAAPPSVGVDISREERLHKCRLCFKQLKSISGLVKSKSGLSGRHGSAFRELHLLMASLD

binding: binds
B1: katanin p60 MIT domain L40P mutant (p60-MIT L40P) (domain or fragment, UniProt Q9WV86 1-78)
chain: MSLQMIVENVKLAREYALLGNYDSAMVYYQGVLDQMNKYPYSVKDTHLRQKWQQVWQEINVEAKQVKDIMKTLESFKL
